Experimental data: PubChem BioAssay AID1159578 (Peter MacCallum Cancer Centre, 2015)
Here is an unselected part of about 18,000 reagents tested. Over the whole deposit, about 1,030 (5.7%) got an active call. 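Inactive calls also include pools with fewer than 3300 nuclei, whose migration was not assessed.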 The raw values are shown without normalisation. Unmarked entries are inactive. Not all columns of the deposit are shown. No sequences are given here.

Purpose: 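Genome-wide hunt for genes controlling movement of lymphatic endothelial cells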 (primary screen)
System: human lymphatic endothelial cells
Reagent: siRNA pool against human genes, 40 nM
Timing: 48 h after transfection
Measured: 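High-content imaging of dye-stained cells in a scratch assay measures filled wound area and nuclei per well; duplicate means given as ratio to mock and robust z-score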
Reading the numbers: migration robust z-score: higher = faster migration into the scratch; nuclei per well: higher = more cells in the well
Call rule: 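Pools averaging fewer than 3300 nuclei are never called; remaining pools count as changed when migration robust z lies outside -2 to 2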
Calls: active = migration changed; inactive = no migration change, or too few cells

Depletion of PSME1 (proteasome activator subunit 1) resulted in: migration robust z-score -0.46; migration class with cell-count check migration z between -2 and 2; enough cells; nuclei per well, duplicate mean 5323.
For CSTB (cystatin B), the values are migration robust z-score 0.18; migration class with cell-count check migration z between -2 and 2; enough cells; nuclei per well, duplicate mean 5636.
For GNA13 (G protein subunit alpha 13), the values are migration robust z-score -0.05; migration class with cell-count check migration z between -2 and 2; enough cells; nuclei per well, duplicate mean 5916.
For FPR1 (formyl peptide receptor 1), the entry reads migration robust z-score 0.39; migration class with cell-count check migration z between -2 and 2; enough cells; nuclei per well, duplicate mean 7536.
PLEKHA7 (pleckstrin homology domain containing A7) scored migration robust z-score 1.01; migration class with cell-count check migration z between -2 and 2; enough cells; nuclei per well, duplicate mean 5172.
ZNF318 (zinc finger protein 318) showed migration robust z-score 0.01; migration class with cell-count check migration z between -2 and 2; enough cells; nuclei per well, duplicate mean 6646.
Silencing of HS3ST5 (heparan sulfate-glucosamine 3-sulfotransferase 5) came out at: migration robust z-score -0.02; migration class with cell-count check migration z between -2 and 2; enough cells; nuclei per well, duplicate mean 6074.
HOMER1 (homer scaffold protein 1) showed migration robust z-score 0.98; migration class with cell-count check migration z between -2 and 2; enough cells; nuclei per well, duplicate mean 7348.

2 successive reagents already listed, quoted:
CSTB (cystatin B) → migration robust z-score: 0.18; migration class with cell-count check: migration z between -2 and 2; enough cells; nuclei per well, duplicate mean: 5636
GNA13 (G protein subunit alpha 13) → migration robust z-score: -0.05; migration class with cell-count check: migration z between -2 and 2; enough cells; nuclei per well, duplicate mean: 5916

The results go on:
Against SAXO5 (stabilizer of axonemal microtubules 5) the deposit lists migration robust z-score -2.48; migration class with cell-count check under 3300 nuclei; migration not judged; nuclei per well, duplicate mean 1980.
For ARMC7 (armadillo repeat containing 7), the values are migration robust z-score -0.56; migration class with cell-count check migration z between -2 and 2; enough cells; nuclei per well, duplicate mean 6288.
KRT15 (keratin 15) gave migration robust z-score 0.89; migration class with cell-count check migration z between -2 and 2; enough cells; nuclei per well, duplicate mean 6186.
Silencing of RAB25 (RAB25, member RAS oncogene family) came out at: migration robust z-score 0.46; migration class with cell-count check migration z between -2 and 2; enough cells; nuclei per well, duplicate mean 5173.
